The values that follow come from PMC9834230, “The HAPSTR2 retrogene buffers stress signaling and resilience in mammals” (Nature Communications, 2023).

Protein sequences, listed by entry. Tags and fused reporters are not part of them.
UniProt Q7Z6Z7: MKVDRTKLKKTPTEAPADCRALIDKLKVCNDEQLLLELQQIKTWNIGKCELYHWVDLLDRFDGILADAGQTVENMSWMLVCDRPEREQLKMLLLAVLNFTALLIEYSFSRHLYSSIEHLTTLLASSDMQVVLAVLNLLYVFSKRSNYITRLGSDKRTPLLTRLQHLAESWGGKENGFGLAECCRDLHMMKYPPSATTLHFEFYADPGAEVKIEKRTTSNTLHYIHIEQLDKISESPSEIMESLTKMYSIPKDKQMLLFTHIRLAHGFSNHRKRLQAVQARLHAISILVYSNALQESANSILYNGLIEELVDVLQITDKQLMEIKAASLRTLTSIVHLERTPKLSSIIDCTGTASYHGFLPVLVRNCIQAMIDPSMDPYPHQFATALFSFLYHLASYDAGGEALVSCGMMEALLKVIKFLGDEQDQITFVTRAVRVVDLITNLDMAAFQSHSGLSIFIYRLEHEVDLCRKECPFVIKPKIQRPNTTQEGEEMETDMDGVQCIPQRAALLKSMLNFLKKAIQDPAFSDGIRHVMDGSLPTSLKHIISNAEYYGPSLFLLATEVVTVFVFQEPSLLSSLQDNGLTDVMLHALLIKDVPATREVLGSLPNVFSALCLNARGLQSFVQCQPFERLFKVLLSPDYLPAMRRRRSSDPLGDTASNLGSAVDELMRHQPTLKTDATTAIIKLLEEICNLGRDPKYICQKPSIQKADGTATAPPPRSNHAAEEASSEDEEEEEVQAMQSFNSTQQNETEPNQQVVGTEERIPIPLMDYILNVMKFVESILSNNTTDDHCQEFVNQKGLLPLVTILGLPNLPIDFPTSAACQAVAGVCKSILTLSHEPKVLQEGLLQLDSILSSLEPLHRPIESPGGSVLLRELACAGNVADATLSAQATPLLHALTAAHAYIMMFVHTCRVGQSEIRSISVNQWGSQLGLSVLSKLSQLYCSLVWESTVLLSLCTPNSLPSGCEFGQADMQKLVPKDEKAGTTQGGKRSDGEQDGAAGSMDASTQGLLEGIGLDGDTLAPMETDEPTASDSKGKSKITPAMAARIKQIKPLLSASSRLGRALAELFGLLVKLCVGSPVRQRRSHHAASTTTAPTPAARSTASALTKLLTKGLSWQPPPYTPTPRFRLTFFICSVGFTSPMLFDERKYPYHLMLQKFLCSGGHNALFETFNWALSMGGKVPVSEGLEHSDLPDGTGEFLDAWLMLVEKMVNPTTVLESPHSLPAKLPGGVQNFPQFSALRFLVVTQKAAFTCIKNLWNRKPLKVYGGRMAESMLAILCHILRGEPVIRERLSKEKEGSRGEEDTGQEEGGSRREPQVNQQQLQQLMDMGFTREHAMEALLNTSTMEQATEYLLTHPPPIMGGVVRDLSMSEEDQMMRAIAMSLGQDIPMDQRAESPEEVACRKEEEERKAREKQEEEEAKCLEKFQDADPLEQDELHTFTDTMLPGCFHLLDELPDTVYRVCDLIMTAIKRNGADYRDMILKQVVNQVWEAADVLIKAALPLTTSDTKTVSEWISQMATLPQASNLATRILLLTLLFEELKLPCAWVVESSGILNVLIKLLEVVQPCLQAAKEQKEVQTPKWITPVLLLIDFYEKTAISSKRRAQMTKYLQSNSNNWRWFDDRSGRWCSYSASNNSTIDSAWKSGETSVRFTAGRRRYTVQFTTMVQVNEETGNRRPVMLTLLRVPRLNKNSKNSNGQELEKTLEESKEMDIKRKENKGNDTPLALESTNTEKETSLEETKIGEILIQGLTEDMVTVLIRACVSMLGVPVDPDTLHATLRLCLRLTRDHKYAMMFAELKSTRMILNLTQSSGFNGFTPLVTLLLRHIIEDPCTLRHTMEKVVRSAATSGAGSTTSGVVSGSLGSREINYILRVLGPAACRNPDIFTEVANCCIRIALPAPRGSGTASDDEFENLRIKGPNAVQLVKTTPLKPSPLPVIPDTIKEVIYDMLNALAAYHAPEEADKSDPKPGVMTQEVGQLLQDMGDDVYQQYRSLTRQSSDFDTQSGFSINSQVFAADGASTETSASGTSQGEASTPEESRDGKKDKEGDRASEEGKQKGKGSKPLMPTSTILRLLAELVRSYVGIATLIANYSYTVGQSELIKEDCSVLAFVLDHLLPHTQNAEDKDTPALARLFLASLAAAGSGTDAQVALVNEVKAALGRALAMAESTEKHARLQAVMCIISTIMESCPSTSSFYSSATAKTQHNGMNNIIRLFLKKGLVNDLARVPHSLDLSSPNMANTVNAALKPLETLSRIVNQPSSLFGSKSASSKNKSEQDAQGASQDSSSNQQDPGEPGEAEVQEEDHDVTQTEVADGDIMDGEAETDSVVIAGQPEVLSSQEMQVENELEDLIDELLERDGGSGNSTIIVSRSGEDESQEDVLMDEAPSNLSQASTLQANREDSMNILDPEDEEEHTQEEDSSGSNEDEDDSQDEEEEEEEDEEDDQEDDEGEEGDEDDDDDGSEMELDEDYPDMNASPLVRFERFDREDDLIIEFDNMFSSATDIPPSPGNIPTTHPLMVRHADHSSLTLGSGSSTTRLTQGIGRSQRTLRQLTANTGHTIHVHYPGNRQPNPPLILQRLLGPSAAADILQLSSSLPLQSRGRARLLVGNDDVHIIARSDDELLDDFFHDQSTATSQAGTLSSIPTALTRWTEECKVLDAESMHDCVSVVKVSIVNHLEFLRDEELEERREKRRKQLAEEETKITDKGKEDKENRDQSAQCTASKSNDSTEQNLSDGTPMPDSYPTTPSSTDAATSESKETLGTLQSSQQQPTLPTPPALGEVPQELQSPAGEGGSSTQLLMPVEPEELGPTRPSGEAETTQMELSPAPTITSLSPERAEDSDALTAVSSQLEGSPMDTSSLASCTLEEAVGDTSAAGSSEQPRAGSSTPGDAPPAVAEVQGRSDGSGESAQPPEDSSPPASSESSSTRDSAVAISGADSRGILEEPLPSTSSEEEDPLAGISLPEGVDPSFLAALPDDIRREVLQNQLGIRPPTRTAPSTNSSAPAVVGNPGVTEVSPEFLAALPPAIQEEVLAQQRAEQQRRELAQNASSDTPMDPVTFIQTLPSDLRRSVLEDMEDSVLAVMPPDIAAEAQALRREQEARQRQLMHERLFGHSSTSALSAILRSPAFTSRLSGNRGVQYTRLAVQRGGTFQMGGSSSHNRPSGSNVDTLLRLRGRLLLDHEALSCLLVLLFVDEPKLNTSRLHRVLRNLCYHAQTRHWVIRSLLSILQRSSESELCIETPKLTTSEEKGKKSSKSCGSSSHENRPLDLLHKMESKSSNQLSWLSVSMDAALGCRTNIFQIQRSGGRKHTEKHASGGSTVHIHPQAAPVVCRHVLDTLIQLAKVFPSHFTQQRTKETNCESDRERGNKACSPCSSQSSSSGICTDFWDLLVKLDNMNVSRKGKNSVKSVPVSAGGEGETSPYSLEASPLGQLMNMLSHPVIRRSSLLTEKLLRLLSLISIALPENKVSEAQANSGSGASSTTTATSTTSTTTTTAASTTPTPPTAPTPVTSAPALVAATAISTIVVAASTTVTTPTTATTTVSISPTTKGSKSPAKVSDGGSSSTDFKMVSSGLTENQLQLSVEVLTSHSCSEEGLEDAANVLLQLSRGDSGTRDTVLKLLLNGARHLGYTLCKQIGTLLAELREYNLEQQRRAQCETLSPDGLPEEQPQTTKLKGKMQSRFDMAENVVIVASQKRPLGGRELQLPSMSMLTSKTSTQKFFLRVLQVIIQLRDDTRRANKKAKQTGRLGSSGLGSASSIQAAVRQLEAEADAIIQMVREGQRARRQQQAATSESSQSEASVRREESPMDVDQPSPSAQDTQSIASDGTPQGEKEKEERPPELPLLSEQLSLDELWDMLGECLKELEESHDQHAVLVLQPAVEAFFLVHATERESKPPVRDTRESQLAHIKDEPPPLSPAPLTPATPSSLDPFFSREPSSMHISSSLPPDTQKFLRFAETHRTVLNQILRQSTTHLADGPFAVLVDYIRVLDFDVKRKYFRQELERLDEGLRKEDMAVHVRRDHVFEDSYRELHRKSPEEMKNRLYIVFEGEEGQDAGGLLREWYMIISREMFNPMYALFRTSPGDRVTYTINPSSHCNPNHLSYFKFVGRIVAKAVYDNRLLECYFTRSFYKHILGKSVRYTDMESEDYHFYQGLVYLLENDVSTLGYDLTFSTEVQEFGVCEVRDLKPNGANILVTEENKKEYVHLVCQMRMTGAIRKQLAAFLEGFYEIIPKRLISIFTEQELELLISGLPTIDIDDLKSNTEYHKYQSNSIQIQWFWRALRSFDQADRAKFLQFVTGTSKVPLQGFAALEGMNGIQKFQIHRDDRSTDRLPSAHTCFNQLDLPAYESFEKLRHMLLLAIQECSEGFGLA

The target of assay [1] is T1, FLAG-tagged HAPSTR2 (human).
T1 sequence: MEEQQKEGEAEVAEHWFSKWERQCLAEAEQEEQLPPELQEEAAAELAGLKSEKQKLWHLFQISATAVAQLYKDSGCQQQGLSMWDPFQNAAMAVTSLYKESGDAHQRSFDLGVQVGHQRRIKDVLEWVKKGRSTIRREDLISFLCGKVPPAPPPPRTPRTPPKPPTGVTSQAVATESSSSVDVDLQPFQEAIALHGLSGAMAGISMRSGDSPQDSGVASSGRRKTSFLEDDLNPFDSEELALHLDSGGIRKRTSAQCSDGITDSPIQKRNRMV
Nature of the assay: co-IP; anti-FLAG magnetic beads, 293T cell lysates (parental or HAPSTR1-HA overexpressing), overnight at 4 °C; lysis buffer 50 mM Tris pH 7.5, 100 mM NaCl, 1% Triton, 0.2 mM EDTA, 5% glycerol; immunoblot. In general terms: A western blot detects proteins with antibodies after separation by electrophoresis.

Assay [2] concerns the target T2, FLAG-HAPSTR1 (human) (UniProt Q14CZ0).
T2 sequence: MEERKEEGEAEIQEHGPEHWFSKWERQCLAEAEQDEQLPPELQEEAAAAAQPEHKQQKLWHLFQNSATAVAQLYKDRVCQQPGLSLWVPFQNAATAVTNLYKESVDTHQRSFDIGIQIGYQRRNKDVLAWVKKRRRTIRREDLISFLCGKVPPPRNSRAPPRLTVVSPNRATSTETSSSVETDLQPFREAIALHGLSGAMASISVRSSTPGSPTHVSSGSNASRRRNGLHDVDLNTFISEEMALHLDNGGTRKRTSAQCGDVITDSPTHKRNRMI
The assay is described as above.

The target of assay [3] is T3, FLAG-tagged HAPSTR2 G116R (human).
T3 sequence: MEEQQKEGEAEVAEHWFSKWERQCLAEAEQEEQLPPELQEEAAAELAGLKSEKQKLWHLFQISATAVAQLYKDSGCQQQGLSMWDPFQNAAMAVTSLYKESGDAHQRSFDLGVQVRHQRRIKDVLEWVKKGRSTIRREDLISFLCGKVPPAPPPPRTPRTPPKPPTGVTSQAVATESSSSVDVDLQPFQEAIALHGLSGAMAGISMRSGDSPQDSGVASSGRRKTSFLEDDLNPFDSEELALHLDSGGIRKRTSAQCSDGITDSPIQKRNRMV
The assay is described as above.

The target of assay [4] is T4, recombinant MBP-HAPSTR1 (human) (UniProt Q14CZ0).
T4 sequence: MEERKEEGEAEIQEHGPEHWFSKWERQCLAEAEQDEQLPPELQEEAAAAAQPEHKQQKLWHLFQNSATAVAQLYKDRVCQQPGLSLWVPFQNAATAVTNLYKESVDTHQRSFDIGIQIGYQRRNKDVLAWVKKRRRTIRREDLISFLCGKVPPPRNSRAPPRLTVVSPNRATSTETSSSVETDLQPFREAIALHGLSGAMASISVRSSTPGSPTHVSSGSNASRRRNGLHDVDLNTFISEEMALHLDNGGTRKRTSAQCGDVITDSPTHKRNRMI
Briefly: pull-down; recombinant MBP-tagged bait on amylose resin; 2.5 mg protein of 293T whole cell lysate, overnight at 4 °C; wash buffer 10 mM Tris-HCl, 200 mM NaCl, 1 mM EDTA, 1 mM DTT, pH 7.5; eluted with 10 mM maltose; immunoblot; only the target purified.

Assay [5] has as its target T5, recombinant maltose-binding protein (MBP)-tagged HAPSTR2 (human).
T5 sequence: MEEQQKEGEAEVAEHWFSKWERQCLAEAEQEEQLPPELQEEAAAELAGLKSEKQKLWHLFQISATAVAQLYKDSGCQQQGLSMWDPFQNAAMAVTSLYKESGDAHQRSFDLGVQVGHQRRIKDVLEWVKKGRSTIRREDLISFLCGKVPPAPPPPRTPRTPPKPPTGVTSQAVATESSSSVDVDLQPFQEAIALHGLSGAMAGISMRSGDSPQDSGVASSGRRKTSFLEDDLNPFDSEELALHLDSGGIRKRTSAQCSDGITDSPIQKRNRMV
The description is as above.

No constants are given. Whether binding was seen depends on the method and setting. Binding seen in cells or lysates may run through a third protein. Some results given as binding are weak or reduced against the parent protein; the word gives no strength. Tags and fused reporters may be left off the sequences shown.

Take “HUWE1 (from UniProt Q7Z6Z7 1-4374) (enzyme)”: the binding entry in assay [1], in assay [2], in assay [3], in assay [4] and in assay [5] was “binds” in each case.

B1: endogenous HAPSTR1, long isoform (protein, UniProt Q14CZ0 1-275)
chain: MEERKEEGEAEIQEHGPEHWFSKWERQCLAEAEQDEQLPPELQEEAAAAAQPEHKQQKLWHLFQNSATAVAQLYKDRVCQQPGLSLWVPFQNAATAVTNLYKESVDTHQRSFDIGIQIGYQRRNKDVLAWVKKRRRTIRREDLISFLCGKVPPPRNSRAPPRLTVVSPNRATSTETSSSVETDLQPFREAIALHGLSGAMASISVRSSTPGSPTHVSSGSNASRRRNGLHDVDLNTFISEEMALHLDNGGTRKRTSAQCGDVITDSPTHKRNRMI
For B1, in assay [5], the binding entry is listed as “binds”.

B2: endogenous HAPSTR1 of parental 293T cells (protein, UniProt Q14CZ0 1-275)
chain: MEERKEEGEAEIQEHGPEHWFSKWERQCLAEAEQDEQLPPELQEEAAAAAQPEHKQQKLWHLFQNSATAVAQLYKDRVCQQPGLSLWVPFQNAATAVTNLYKESVDTHQRSFDIGIQIGYQRRNKDVLAWVKKRRRTIRREDLISFLCGKVPPPRNSRAPPRLTVVSPNRATSTETSSSVETDLQPFREAIALHGLSGAMASISVRSSTPGSPTHVSSGSNASRRRNGLHDVDLNTFISEEMALHLDNGGTRKRTSAQCGDVITDSPTHKRNRMI
On to B2, for which, in assay [1], the binding entry was “binds”.

B3: HAPSTR1-HA (protein, UniProt Q14CZ0 1-275)
chain: MEERKEEGEAEIQEHGPEHWFSKWERQCLAEAEQDEQLPPELQEEAAAAAQPEHKQQKLWHLFQNSATAVAQLYKDRVCQQPGLSLWVPFQNAATAVTNLYKESVDTHQRSFDIGIQIGYQRRNKDVLAWVKKRRRTIRREDLISFLCGKVPPPRNSRAPPRLTVVSPNRATSTETSSSVETDLQPFREAIALHGLSGAMASISVRSSTPGSPTHVSSGSNASRRRNGLHDVDLNTFISEEMALHLDNGGTRKRTSAQCGDVITDSPTHKRNRMI
Regarding B3, the binding result in assay [1] was “binds”.
